Results reported in patent US12173001B1, “Pyrido[3,4-e][1,2,4]triazolo[4,3-c]pyrimidines as CK2 inhibitors” (King Faisal University, priority 2024, dated 2024).
pIC50: −log10 of the molar value.

How the values were obtained:
Type in all cases: cell-based
[1] = tested on: PC3 (prostate); test: In vitro cytotoxic activity (MTT) assay, PC3; settings: Homo sapiens, Prostate cell, cells exposed for 96 hours, read-out: Cytotoxicity activity IC50 (50% inhibition of cell proliferation)
Procedure: (§1) Compounds 1-16 were screened for their in vitro cytotoxic activity utilizing a 3-(4,5-dimethyl-thiazol-2-yl)-2,5-diphenyltetrazolium bromide (MTT) assay against selected cancer human cell lines consisting of PC3 (prostate), HCT116 (colon), A375 (melanoma), H1299 (lung), MIAPaCa-2 (pancreas), HL60 (leukemia), MCF7 (breast), MDA-MB-231 (breast) (T. Mosmann, J. Immunol. Meth., 1983, 65, 55-63). The cells were cultured at 37° C. in RMPI1640 medium supplemented with 10% fetal bovine serum, 50 IU/mL penicillin, and […] streptomycin in a 5% CO2 incubator. All cells were sub-cultured 3 times/week by trypsinization. Viable cells were seeded and allowed to adhere for 12 hours before a test drug was added in 96-well plates at an initial density of 1.0×10^5 cells/mL. Tumor cell lines were separately exposed to various concentrations of the tested compounds followed by incubation at a temperature of 37° C. during 96 hours inside a medium of fresh RMPI 1640. Cells were subsequently incubated at 37° C. using MTT at 0.5 mg/mL during 4 hours. After removal of supernatant, formazan crystals were dissolved in isopropanol and the optical density was measured at 570 nm. CX-4945 was used as a positive control.

[2] = tested on: H1299 (lung); test: In vitro cytotoxic activity (MTT) assay, H1299; settings: Homo sapiens, NCI-H1299, cells exposed for 96 hours, read-out: Cytotoxicity activity IC50 (50% inhibition of cell proliferation)
Procedure: as §1

[3] = tested on: MDA-MB-231 (breast); test: In vitro cytotoxic activity (MTT) assay, MDA-MB-231; settings: Homo sapiens, cells exposed for 96 hours, read-out: Cytotoxicity activity IC50 (50% inhibition of cell proliferation)
Procedure: as §1

[4] = tested on: HCT116 (colon); test: In vitro cytotoxic activity (MTT) assay, HCT116; settings: Homo sapiens, HCT-116, cells exposed for 96 hours, read-out: Cytotoxicity activity IC50 (50% inhibition of cell proliferation)
Procedure: as §1

[5] = tested on: A375 (melanoma); test: In vitro cytotoxic activity (MTT) assay, A375; settings: Homo sapiens, A-375, cells exposed for 96 hours, read-out: Cytotoxicity activity IC50 (50% inhibition of cell proliferation)
Procedure: as §1

[6] = tested on: HL60 (leukemia); test: In vitro cytotoxic activity (MTT) assay, HL60; settings: Homo sapiens, HL-60, cells exposed for 96 hours, read-out: Cytotoxicity activity IC50 (50% inhibition of cell proliferation)
Procedure: as §1

[7] = tested on: MCF7 (breast); test: In vitro cytotoxic activity (MTT) assay, MCF7; settings: Homo sapiens, cells exposed for 96 hours, read-out: Cytotoxicity activity IC50 (50% inhibition of cell proliferation)
Procedure: as §1

[8] = tested on: MIAPaCa-2 (pancreas); test: In vitro cytotoxic activity (MTT) assay, MIAPaCa-2; settings: Homo sapiens, MIA PaCa-2, cells exposed for 96 hours, read-out: Cytotoxicity activity IC50 (50% inhibition of cell proliferation)
Procedure: as §1

O=C(O)c1ccc2c(c1)nc(Nc1cccc(Cl)c1)c1ccncc12 [CX-4945, reference compound]
pIC50 [1]: 5.70 | pIC50 [2]: 5.64 | pIC50 [3]: 5.21 | pIC50 [4]: 5.64 | pIC50 [5]: 5.39 | pIC50 [6]: 5.43 | pIC50 [7]: 5.04 | pIC50 [8]: 6.00
